Laboratory results: the supplement of paper PMC11732987, “Enantioselective OTUD7B fragment discovery through chemoproteomics screening and high-throughput optimisation” (Communications Chemistry, 2025)
The other results are listed elsewhere or left out. The data scatter; read single values as rough.

Chains of the proteins cited; added tags and fusions are not shown. Lines headed by an entry give the natural chain unless they say otherwise; changes in a name come on top.
UniProt O94901: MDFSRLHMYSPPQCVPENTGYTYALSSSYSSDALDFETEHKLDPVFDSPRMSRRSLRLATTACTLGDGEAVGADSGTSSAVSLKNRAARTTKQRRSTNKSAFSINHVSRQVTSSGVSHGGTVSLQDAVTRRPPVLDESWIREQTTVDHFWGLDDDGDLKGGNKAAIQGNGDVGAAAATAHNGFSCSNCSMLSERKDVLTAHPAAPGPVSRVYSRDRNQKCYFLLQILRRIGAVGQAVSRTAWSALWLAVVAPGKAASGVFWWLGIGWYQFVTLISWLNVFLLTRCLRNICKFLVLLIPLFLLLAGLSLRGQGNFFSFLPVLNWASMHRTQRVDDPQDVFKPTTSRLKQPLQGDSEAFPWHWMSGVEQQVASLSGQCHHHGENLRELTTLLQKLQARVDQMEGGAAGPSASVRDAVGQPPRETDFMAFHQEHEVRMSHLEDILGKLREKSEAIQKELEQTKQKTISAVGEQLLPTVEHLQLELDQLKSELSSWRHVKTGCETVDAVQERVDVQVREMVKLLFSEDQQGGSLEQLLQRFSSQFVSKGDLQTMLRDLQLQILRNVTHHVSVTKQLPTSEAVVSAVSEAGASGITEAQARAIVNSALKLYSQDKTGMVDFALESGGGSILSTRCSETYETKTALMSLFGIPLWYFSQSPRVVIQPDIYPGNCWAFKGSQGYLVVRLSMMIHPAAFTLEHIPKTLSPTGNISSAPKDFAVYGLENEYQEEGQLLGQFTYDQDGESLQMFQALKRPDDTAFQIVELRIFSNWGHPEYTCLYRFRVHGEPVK

These compounds were tested against T1, SUN1 C63 (UniProt O94901) (assay: log2 mean competition ratio of IA-DTB cysteine labelling (DMSO/compound) (log2 ratio); higher = stronger cysteine engagement by compound). Details: 50 µM; treatment time: 4 h; cell line lysate: HEK293T.
T1 sequence (whole entry): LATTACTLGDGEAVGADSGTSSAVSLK
Protocol: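 IA-DTB competitive cysteine chemoproteomics in HEK293T RIPA lysate. Lysates were treated with compound 29 or 30 at 50 or 200 µM for 4 h, then IA-DTB (500 µM, 1 h), trypsin-digested, NeutrAvidin-enriched and analysed by diaPASEF. Competition ratio = intensity DMSO / intensity compound (n=4 treated, n=64 DMSO); binding: mean log2 CR ≥ 1 and p ≤ 0.05 plus QC filters. Target is the cysteine site.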
With `O=C(CCl)N[C@@H]1CCCc2ccccc21` the “log2 mean competition ratio” value was -0.231. With `O=C(CCl)N[C@H]1CCCc2ccccc21` the “log2 mean competition ratio” value was 0.15.

Same assay, conditions: 200 µM; treatment time: 4 h; cell line lysate: HEK293T
`O=C(CCl)N[C@@H]1CCCc2ccccc21` was tested, and the “log2 mean competition ratio” value was -0.528. For `O=C(CCl)N[C@H]1CCCc2ccccc21`, the “log2 mean competition ratio” value was -0.319.
